# Measurements published in the supplement of paper PMC10373366.
# The other results are listed elsewhere or left out. Most values come without repeats; read them as rough.
# Tests used:
# A2780 = assay: cell growth inhibition ratio vs untreated control (CCK8); higher = stronger inhibition of cell viability; details: 10 µM; 48 h
# Experimental: (§1)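 Natural product library (Topscience) screened at 10 µM final concentration for 48 h on ovarian cancer A2780 cells and patient-derived ovarian cancer cells (PDC) in 96-well plates; viability read by CCK8 and reported as inhibition ratio (%) relative to untreated control. Single-dose primary screen.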
# [1] = system: patient-derived ovarian cancer cells (PDC); assay: as above; details: 10 µM; 48 h
# Experimental: as §1
SMILES,cell growth inhibition ratio (A2780) [%],cell growth inhibition ratio [1] [%]
Cn1cnc2c1c(=O)[nH]c(=O)n2C [Theobromine],-0.586,-31.4
CCOC(=O)C1=C[C@]2(CC)CCCN3CCc4c(n1c1ccccc41)[C@@H]32 [Vinpocetine],-0.464,-9.59
COc1cc(O)cc2c1C(=O)C[C@@H](c1ccccc1)O2 [Alpinetin],29.6,-7.34
COc1c2c(cc3oc(CO)cc(=O)c13)O[C@H](C(C)(C)O)C2 [Cimifugin],12.3,-10.7
O=c1c(O)c(-c2ccc(O)c(O)c2)oc2cc(O)cc(O)c12 [Quercetin Dihydrate],-32.2,7.98
COc1ccc([C@@H]2CC(=O)c3c(O)cc(O[C@@H]4O[C@H](CO)[C@@H](O)[C@H](O)[C@H]4O[C@@H]4O[C@@H](C)[C@H](O)[C@@H](O)[C@H]4O)cc3O2)cc1O [Neohesperidin],0.643,-29.4
COc1cc(C[C@H](C)[C@H](C)Cc2ccc3c(c2)OCO3)ccc1O [Anwuligan],6.4,-3.46
COc1cc(O)c(CC=C(C)C)c(O)c1C(=O)/C=C/c1ccc(O)cc1 [Xanthohumol],43.9,13.5
CC(C)=CC[C@@H](O)C1=CC(=O)c2c(O)ccc(O)c2C1=O [Shikonin],91.1,41
O=c1c(-c2ccc(O)cc2)coc2cc(O[C@@H]3O[C@H](CO)[C@@H](O)[C@H](O)[C@H]3O)ccc12 [Daidzin],14.2,2.16
CC[C@]12CCCN3CCc4c(n(c5ccccc45)[C@@](O)(C(=O)OC)C1)[C@@H]32 [Vincamine],20.6,8.83
O=C(O)[C@H]1O[C@@H](Oc2cc3oc(-c4ccc(O)cc4)cc(=O)c3c(O)c2O)[C@H](O)[C@@H](O)[C@@H]1O [Scutellarin],5.2,-3.09
CC1(C)C2CCC1(C)C(O)C2 (configuration not stated) [Borneol],0.48,7.96
CC1(C)CC[C@]2(C(=O)O)CC[C@]3(C)C(=CC[C@@H]4[C@@]5(C)CC[C@H](O)C(C)(C)[C@@H]5CC[C@]43C)[C@@H]2C1 [Oleanolic Acid],26.5,8.81
"C[C@H](O)[C@H]1CC[C@H]2[C@@H]3CC[C@@H]4C[C@H](O)CC[C@]4(C)[C@H]3CC[C@]12C [5Beta-Pregnane-3Alpha,20alpha-Diol]",36,41.4
COc1ccc(/C=C/C(=O)O)cc1O [Isoferulic acid],3.26,-5.66
C=C(C)[C@@H]1CC[C@]2(C(=O)O[C@@H]3O[C@H](CO[C@@H]4O[C@H](CO)[C@@H](O[C@@H]5O[C@@H](C)[C@H](O)[C@@H](O)[C@H]5O)[C@H](O)[C@H]4O)[C@@H](O)[C@H](O)[C@H]3O)CC[C@]3(C)[C@H](CC[C@@H]4[C@@]5(C)CC[C@H](O[C@@H]6OC[C@H](O)[C@H](O)[C@H]6O[C@@H]6O[C@@H](C)[C@H](O)[C@@H](O)[C@H]6O)[C@@](C)(CO)[C@@H]5CC[C@]43C)[C@@H]12 [Anemoside B4],11.6,-22.3
CCOC(=O)/C=C/c1ccc(O)c(OC)c1 [Ethyl ferulate],-10.8,9.32

SMILES,cell growth inhibition ratio (A2780) [%],cell growth inhibition ratio [1] [%]
COc1cc(C=O)cc(OC)c1O [syringaldehyde],13.6,-12.3
O=c1cc(-c2ccccc2)oc2ccccc12 [Flavone],5.41,-21
O=c1c2ccccc2nc2n1CCc1c-2[nH]c2ccccc12 [Rutaecarpine],12.9,18.4
CC1(C)CCCC2(C)OC(=O)C=C12 (configuration not stated) [Dihydroactinidiolide],2.03,-5.79
COc1cc(/C=C/C(=O)CC(=O)/C=C/c2ccc(O)c(OC)c2)ccc1O [Curcumin],18.9,-3.58
OC[C@H]1O[C@@H](O[C@@H]2OC=C[C@H]3[C@H](O)[C@@H]4O[C@]4(CO)[C@@H]23)[C@H](O)[C@@H](O)[C@@H]1O [Catalpol],-29.4,-4.79
COc1c(O[C@@H]2O[C@H](CO)[C@@H](O)[C@H](O)[C@H]2O)cc2occ(-c3ccc(O)cc3)c(=O)c2c1O [Tectoridin],20.7,-3.87
COc1ccc([C@@H]2CC(=O)c3c(O)cc(O)cc3O2)cc1O [Hesperetin],1.85,-17.6
O=C(O[C@@H]1Cc2c(O)cc(O)cc2O[C@@H]1c1cc(O)c(O)c(O)c1)c1cc(O)c(O)c(O)c1 [(-)-Epigallocatechin Gallate],-0.72,-1.74
OC[C@H]1O[C@@H]2O[C@H]3[C@H](O)[C@@H](O)[C@@H](O[C@H]4[C@H](O)[C@@H](O)[C@@H](O[C@H]5[C@H](O)[C@@H](O)[C@@H](O[C@H]6[C@H](O)[C@@H](O)[C@@H](O[C@H]7[C@H](O)[C@@H](O)[C@@H](O[C@H]8[C@H](O)[C@@H](O)[C@@H](O[C@H]1[C@H](O)[C@H]2O)O[C@@H]8CO)O[C@@H]7CO)O[C@@H]6CO)O[C@@H]5CO)O[C@@H]4CO)O[C@@H]3CO [Beta-Cyclodextrin],1.24,-7.49
CC1(C)CC[C@]2(C(=O)O)[C@H](O)C[C@]3(C)C(=CC[C@@H]4[C@@]5(C)CC[C@H](O)[C@@](C)(C=O)[C@@H]5CC[C@]43C)[C@@H]2C1 [Quillaic Acid],11.8,-3.5
CN(N=O)C(=O)N[C@@H]1[C@@H](O)[C@H](O)[C@@H](CO)O[C@@H]1O [Streptozocin],8.37,8.93
O=c1ccc2ccccc2o1 [Coumarin],1.76,-4.33
C[C@@H]1O[C@@H](O[C@H]2[C@H](Oc3cc(O)c(C(=O)CCc4ccc(O)cc4)c(O)c3)O[C@H](CO)[C@@H](O)[C@@H]2O)[C@H](O)[C@H](O)[C@H]1O [Naringin dihydrochalcone],-1.1,-10
OC1COC(O)C(O)C1O (stereo not drawn) [L(+)-Arabinose],4.11,-0.374
C=Cc1c(C)c2cc3[nH]c(cc4nc(cc5nc(cc1[nH]2)C(C)=C5CCC(=O)O)C(CCC(=O)O)=C4C)c(C)c3C=C [Protoporphyrin IX],21.8,3.09
O=C(O)CCC(=O)O [Succinic acid],7.83,-3.58
C=CCc1ccc(O)c(-c2ccc(O)c(CC=C)c2)c1 [Honokiol],-30.5,6.24

# 2 successive compounds already listed, for reference:
SMILES,cell growth inhibition ratio (A2780) [%],cell growth inhibition ratio [1] [%]
COc1ccc([C@@H]2CC(=O)c3c(O)cc(O)cc3O2)cc1O [Hesperetin],1.85,-17.6
O=C(O[C@@H]1Cc2c(O)cc(O)cc2O[C@@H]1c1cc(O)c(O)c(O)c1)c1cc(O)c(O)c(O)c1 [(-)-Epigallocatechin Gallate],-0.72,-1.74
